Data published in PMC2953525, “Subtle Alterations in PCNA-Partner Interactions Severely Impair DNA Replication and Repair” (PLoS Biology, 2010).
Positions count from the first letter of the chain named. These are yes or no findings as the source states them, for the method shown. Some entries that bind do so weakly or less than the wild type.

Key:
Test in all cases: two-hybrid; pAD-GAL4-PCNA WT or mutant (called bait) and pBD-GAL4-partner (called prey) in strain YRG2; 10-fold serial dilutions spotted on SC-Leu-Trp-His plates, 30°C, 3 d; growth similar to WT PCNA is denoted 1
pol30-Rad30E2 = target: T1, pol30-Rad30E2 (yeast, UniProt P15873 1-258, IDCL DIDADFLKIEEL to DDDWDFLKILEL)
T1 construct: PCNA (POL30), yeast; source: yeast two-hybrid fusion (pAD-GAL4, strain YRG2)
T1 sequence: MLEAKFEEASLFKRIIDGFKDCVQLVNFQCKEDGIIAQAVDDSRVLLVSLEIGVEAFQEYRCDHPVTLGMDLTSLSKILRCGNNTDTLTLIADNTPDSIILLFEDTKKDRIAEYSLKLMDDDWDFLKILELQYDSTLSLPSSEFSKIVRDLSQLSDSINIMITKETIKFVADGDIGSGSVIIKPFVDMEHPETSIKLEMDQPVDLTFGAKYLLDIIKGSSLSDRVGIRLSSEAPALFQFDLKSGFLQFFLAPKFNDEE

pol30-Rad30E9 = target: T2, pol30-Rad30E9 (yeast, UniProt P15873 1-258, IDCL DIDADFLKIEEL to DNDWDFLKIDEL)
T2 construct: PCNA (POL30), yeast; also called Pol30-Rad30E9p; source: yeast two-hybrid fusion (pAD-GAL4, strain YRG2)
T2 sequence: T1 sequence with D121N, L129D

pol30-Rad27E6 = target: T3, pol30-Rad27E6 (yeast, UniProt P15873 1-258, IDCL DIDADFLKIEEL to DGDYDILKIREL)
T3 construct: PCNA (POL30), yeast; source: yeast two-hybrid fusion (pAD-GAL4, strain YRG2)
T3 sequence: T1 sequence with D121G, W123Y, F125I, L129R

pol30-Rad27E31 = target: T4, pol30-Rad27E31 (yeast, UniProt P15873 1-258, IDCL DIDADFLKIEEL to DGDYDVLKIREL)
T4 construct: PCNA (POL30), yeast; source: yeast two-hybrid fusion (pAD-GAL4, strain YRG2)
T4 sequence: T1 sequence with D121G, W123Y, F125V, L129R

pol30-Pol32E5 = target: T5, pol30-Pol32E5 (yeast, UniProt P15873 1-258, IDCL DIDADFLKIEEL to DADNDFLKISEL)
T5 construct: PCNA (POL30), yeast; source: yeast two-hybrid fusion (pAD-GAL4, strain YRG2)
T5 sequence: T1 sequence with D121A, W123N, L129S

[1] = target: proliferating cell nuclear antigen (PCNA) (yeast) (UniProt P15873)
pol30-Rad27L2 = target: T6, pol30-Rad27L2 (yeast, UniProt P15873 1-258, IDCL DIDADFLKIEEL to D––VDTLKITEL)
T6 construct: PCNA (POL30), yeast; two residues after the first aspartic acid of the IDCL are deleted; source: yeast two-hybrid fusion (pAD-GAL4, strain YRG2)
T6 sequence: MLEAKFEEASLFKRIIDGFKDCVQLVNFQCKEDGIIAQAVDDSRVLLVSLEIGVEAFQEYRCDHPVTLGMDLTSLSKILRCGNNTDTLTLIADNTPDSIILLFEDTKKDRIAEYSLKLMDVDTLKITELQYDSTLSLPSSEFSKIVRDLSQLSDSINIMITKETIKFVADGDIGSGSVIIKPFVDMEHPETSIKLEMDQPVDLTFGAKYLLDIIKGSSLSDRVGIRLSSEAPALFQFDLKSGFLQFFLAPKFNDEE

Measured: binding

B1: Ung1 (natural protein, yeast, UniProt P12887 1-359, looked up)
chain: MWCMRRLPTNSVMTVARKRKQTTIEDFFGTKKSTNEAPNKKGKSGATFMTITNGAAIKTETKAVAKEANTDKYPANSNAKDVYSKNLSSNLRTLLSLELETIDDSWFPHLMDEFKKPYFVKLKQFVTKEQADHTVFPPAKDIYSWTRLTPFNKVKVVIIGQDPYHNFNQAHGLAFSVKPPTPAPPSLKNIYKELKQEYPDFVEDNKVGDLTHWASQGVLLLNTSLTVRAHNANSHSKHGWETFTKRVVQLLIQDREADGKSLVFLLWGNNAIKLVESLLGSTSVGSGSKYPNIMVMKSVHPSPLSASRGFFGTNHFKMINDWLYNTRGEKMIDWSVVPGTSLREVQEANARLESESKDP
notes: Ung1 (base excision repair), yeast; also called pBD-Ung1; source: yeast two-hybrid fusion (pBD-GAL4, strain YRG2)
binds: all assays above

B2: Msh6 (natural protein, yeast, UniProt Q03834 1-1242, looked up)
chain: MAPATPKTSKTAHFENGSTSSQKKMKQSSLLSFFSKQVPSGTPSKKVQKPTPATLENTATDKITKNPQGGKTGKLFVDVDEDNDLTIAEETVSTVRSDIMHSQEPQSDTMLNSNTTEPKSTTTDEDLSSSQSRRNHKRRVNYAESDDDDSDTTFTAKRKKGKVVDSESDEDEYLPDKNDGDEDDDIADDKEDIKGELAEDSGDDDDLISLAETTSKKKFSYNTSHSSSPFTRNISRDNSKKKSRPNQAPSRSYNPSHSQPSATSKSSKFNKQNEERYQWLVDERDAQRRPKSDPEYDPRTLYIPSSAWNKFTPFEKQYWEIKSKMWDCIVFFKKGKFFELYEKDALLANALFDLKIAGGGRANMQLAGIPEMSFEYWAAQFIQMGYKVAKVDQRESMLAKEMREGSKGIVKRELQCILTSGTLTDGDMLHSDLATFCLAIREEPGNFYNETQLDSSTIVQKLNTKIFGAAFIDTATGELQMLEFEDDSECTKLDTLMSQVRPMEVVMERNNLSTLANKIVKFNSAPNAIFNEVKAGEEFYDCDKTYAEIISSEYFSTEEDWPEVLKSYYDTGKKVGFSAFGGLLYYLKWLKLDKNLISMKNIKEYDFVKSQHSMVLDGITLQNLEIFSNSFDGSDKGTLFKLFNRAITPMGKRMMKKWLMHPLLRKNDIESRLDSVDSLLQDITLREQLEITFSKLPDLERMLARIHSRTIKVKDFEKVITAFETIIELQDSLKNNDLKGDVSKYISSFPEGLVEAVKSWTNAFERQKAINENIIVPQRGFDIEFDKSMDRIQELEDELMEILMTYRKQFKCSNIQYKDSGKEIYTIEIPISATKNVPSNWVQMAANKTYKRYYSDEVRALARSMAEAKEIHKTLEEDLKNRLCQKFDAHYNTIWMPTIQAISNIDCLLAITRTSEYLGAPSCRPTIVDEVDSKTNTQLNGFLKFKSLRHPCFNLGATTAKDFIPNDIELGKEQPRLGLLTGANAAGKSTILRMACIAVIMAQMGCYVPCESAVLTPIDRIMTRLGANDNIMQGKSTFFVELAETKKILDMATNRSLLVVDELGRGGSSSDGFAIAESVLHHVATHIQSLGFFATHYGTLASSFKHHPQVRPLKMSILVDEATRNVTFLYKMLEGQSEGSFGMHVASMCGISKEIIDNAQIAADNLEHTSRLVKERDLAANNLNGEVVSVPGGLQSDFVRIAYGDGLKNTKLGSGEGVLNYDWNIKRNVLKSLFSIIDDLQS
notes: Msh6 (mismatch repair), yeast; also called pBD-Msh6; source: yeast two-hybrid fusion (pBD-GAL4, strain YRG2)
binds: all assays above
